# According to paper PMC6925144, “A prospective compound screening contest identified broader inhibitors for Sirtuin 1” (Scientific Reports, 2019):
# By UniProt entry, the sequences of proteins in these tests, tags left out. Residues count along the entry.
# UniProt Q96EB6, 2-747 limits assumed: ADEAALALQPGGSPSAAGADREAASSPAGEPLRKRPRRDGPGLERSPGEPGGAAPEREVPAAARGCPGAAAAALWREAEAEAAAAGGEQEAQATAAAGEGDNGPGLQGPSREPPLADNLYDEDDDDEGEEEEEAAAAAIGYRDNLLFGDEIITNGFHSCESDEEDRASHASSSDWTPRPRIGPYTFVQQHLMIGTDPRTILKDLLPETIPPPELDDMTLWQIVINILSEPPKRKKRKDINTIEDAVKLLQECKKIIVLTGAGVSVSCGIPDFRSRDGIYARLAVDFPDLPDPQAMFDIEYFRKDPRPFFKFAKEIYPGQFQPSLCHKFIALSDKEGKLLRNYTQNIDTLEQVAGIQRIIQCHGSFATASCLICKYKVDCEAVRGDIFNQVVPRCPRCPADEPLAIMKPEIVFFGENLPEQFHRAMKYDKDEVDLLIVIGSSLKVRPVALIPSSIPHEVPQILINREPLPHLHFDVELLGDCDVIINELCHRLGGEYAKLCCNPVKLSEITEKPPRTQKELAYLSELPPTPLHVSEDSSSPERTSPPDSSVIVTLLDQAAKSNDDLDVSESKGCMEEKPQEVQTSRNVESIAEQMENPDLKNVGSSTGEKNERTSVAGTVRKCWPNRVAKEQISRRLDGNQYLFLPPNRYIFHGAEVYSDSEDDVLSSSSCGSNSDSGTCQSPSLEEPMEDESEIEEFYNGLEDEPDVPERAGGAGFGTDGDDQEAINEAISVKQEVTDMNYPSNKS
# In all, about 3,200 compounds were measured (“TSA(with NAD+) / Primary screening (TSA) / delta Tm (K)”: median about -0.04, highest 2% from about 0.37 on). The list shows a part of the results.
# Molecular target: NAD-dependent deacetylase Sirtuin 1 (human, UniProt Q96EB6)
# Experiment: primary screen, delta tm
# Set-up: single well (n = 1, as 'the same TSA')
# Conditions: 10 µM
row,Compound,TSA(with NAD+) / Primary screening (TSA) / delta Tm (K)
1,O=C(Nc1ccc(F)c(F)c1F)c1ccncc1,-0.01 K
2,CCCNC(=O)C1CCCN1c1cc(C(F)(F)F)nc2ccccc12 (centres unmarked),-0.03 K
3,Cc1ccc2oc(=O)cc(N3C[C@H]4C[C@H](C3)c3cccc(=O)n3C4)c2c1,-0.03 K
4,CNC(=O)Cn1ccc(C(F)(F)F)n1,-0.03 K
5,Cc1c(C(=O)C2=C(O)C(=O)N(CCCN3CCOCC3)C2c2ccccc2)cnn1-c1ccccc1 (centres unmarked),-0.12 K
6,Cc1ccc(N(C)S(=O)(=O)c2cccc(C(=O)Nc3c(C)cccc3C(C)C)c2)cc1,0.06 K
7,Cn1c(=O)[nH]c(=O)c2c1nc(N1CCC(C(N)=O)CC1)n2CCCSc1nc2ccccc2s1,-0.03 K
8,CC(NC(=O)c1nccnc1N)c1ccc(NC(=O)C2CC2)cc1 (centres unmarked),-0.01 K
9,O=C(CN1CCCC2(CC=CCC2)C1)N1CCc2[nH]c3ccccc3c2C1 (centres unmarked),0.06 K
10,COc1ccc(C(=O)C2=C(O)C(=O)N(CCN3CCOCC3)C2c2ccc(C)o2)cc1OC (centres unmarked),-0.14 K
11,COC(=O)c1ccc2[nH]c3c(c2c1)CNCC3,-0.24 K
12,CC(=O)c1ccc(N2CCN(c3ncnc4c3oc3ccccc34)CC2)c(F)c1,0.02 K
13,CN(C)C(C)(C)CNc1ncnc2ccsc12,-0.01 K
14,C#CCNC(=O)CNC(=O)c1ccc2c(=O)[nH]c(S)nc2c1,0.06 K
15,COc1ccc([N+](=O)[O-])cc1NC(=O)C(C)N(NC(=O)COc1cccc(Br)c1)C(C)C(=O)Nc1cc([N+](=O)[O-])ccc1OC (centres unmarked),-0.06 K
16,NNc1ncnc2c1cnn2-c1ccc(Cl)cc1,-0.01 K
17,OCCCNc1nc2ccccc2s1,-0.32 K
18,Cc1onc(-c2ccccc2)c1-c1nnc(CSc2ncnc3sc4c(c23)CCC(C)C4)o1 (centres unmarked),-0.12 K
19,Cc1ccccc1C(=O)N1CCC(C(=O)NC2CCCCCC2)CC1,-0.11 K
20,N#Cc1ccc(OCCN2CCCC2C(N)=O)cc1 (centres unmarked),-0.22 K
21,Cc1ccc(N(C)S(=O)(=O)c2cccc(C(=O)Nc3nc4ccccc4[nH]3)c2)cc1,-0.06 K
22,c1nc(N2CCOCC2)c2sccc2n1,0.05 K
23,COc1cccc(CN(C(=O)CN2C(=O)c3cccc(N)c3C2=O)C23CC4CC(CC(C4)C2)C3)c1,0.05 K

# Random excerpt: two records from the list.
row,Compound,TSA(with NAD+) / Primary screening (TSA) / delta Tm (K)
20,N#Cc1ccc(OCCN2CCCC2C(N)=O)cc1 (centres unmarked),-0.22 K
7,Cn1c(=O)[nH]c(=O)c2c1nc(N1CCC(C(N)=O)CC1)n2CCCSc1nc2ccccc2s1,-0.03 K

# Remaining list, next part

row,Compound,TSA(with NAD+) / Primary screening (TSA) / delta Tm (K)
1,COc1cccc(C(C)CC(=O)N2CCC(Oc3ccnc(C(N)=O)c3)CC2)c1 (centres unmarked),-0.05 K
2,CN(c1ccccc1)S(=O)(=O)c1cccc(C(=O)Nc2ccccc2-c2ccccc2)c1,-0.02 K
3,CC(=O)c1cc(CCC(=O)Nc2ccc(-c3nnc4n3CCCCC4)cc2)oc1C,-0.01 K
4,COc1ccc(NC(=O)NCC(C)(C)SC)cc1,-0.09 K
5,NC(=O)C1CC(C(=O)NCc2ccc(O)cc2)=NN1c1ccccc1 (centres unmarked),-0.28 K
6,C=CCOc1ccc(C(=O)C2=C(O)C(=O)N(CCN3CCOCC3)C2c2ccco2)cc1 (centres unmarked),-0.01 K
7,CC(C)C(NC(=O)CCCn1c(=O)oc2cc([N+](=O)[O-])ccc21)c1nnc2ccccn12 (centres unmarked),-0.11 K
8,CCOc1cc(/C=C/C(=O)C2C(=O)C=C(C)OC2=O)ccc1OCC(=O)N1CCOCC1 (centres unmarked),-0.01 K
9,CN(c1ccc(F)cc1)S(=O)(=O)c1ccc(Cl)c(C(=O)Nc2ccc(C(N)=O)cc2)c1,-0.11 K
10,CC(=O)c1ccc(NC(=O)C(C)OC(=O)c2cccc(S(=O)(=O)NC(C)C34CC5CC(CC(C5)C3)C4)c2)cc1 (centres unmarked),0.19 K
11,COc1ccc(CNCC(=O)Nc2sc(-c3ccccc3)cc2C(N)=O)cc1,0.03 K
12,Cc1ccc(N(C)S(=O)(=O)c2cccc(C(=O)OCC(N)=O)c2)cc1,-0.13 K
13,CN(C)c1ncccc1CNC(=O)CN(C)c1ncnc2nc[nH]c12,-0.06 K
14,CC(C)CCN1C(=O)c2ccc(C(=O)OCC(=O)NC(C)C34CC5CC(CC(C5)C3)C4)cc2C1=O (centres unmarked),0.12 K
15,NC(=S)c1ccc(C(=O)Nc2ccc(OC(F)F)cc2)cc1,0.35 K
16,N#Cc1c(NCCOc2ccc3c(c2)CCC(=O)N3)nc2ccccn12,-0.06 K
17,Cn1cc(C(=O)Nc2cccc(C3(C)NC(=O)NC3=O)c2)c2ccccc21 (centres unmarked),0.07 K
18,COC(=O)c1cccc(NC(=O)COC(=O)c2cc(O)cs2)c1,0.07 K
19,Cc1ccc(Cc2cnc(N)s2)cc1,-0.16 K
20,Cc1cccc(NCCC#N)c1C,-0.16 K
21,O=C(NC1CCCCC1O)c1cc2ccccc2[nH]1 (centres unmarked),-0.13 K
22,COc1ccc(-c2nnc(S)o2)c(OC)c1,-0.13 K
23,CS(=O)(=O)Cc1ccc(C(=O)NCC2(N3CCCCC3)CCCCC2)cc1,-0.03 K

# 3 successive records already listed, for reference:
row,Compound,TSA(with NAD+) / Primary screening (TSA) / delta Tm (K)
19,Cc1ccc(Cc2cnc(N)s2)cc1,-0.16 K
20,Cc1cccc(NCCC#N)c1C,-0.16 K
21,O=C(NC1CCCCC1O)c1cc2ccccc2[nH]1 (centres unmarked),-0.13 K

# (listing goes on)

row,Compound,TSA(with NAD+) / Primary screening (TSA) / delta Tm (K)
1,Cc1sc2nc(-c3cccnc3)nc(N3CCC(C(N)=O)CC3)c2c1C,-0.01 K
2,O=C(Nc1cccc(CNC(=O)N2CCC2)c1)c1ccccn1,-0.02 K
3,O=C(NCc1ccccc1CS(=O)(=O)N1CCOCC1)C1=COCCO1,-0.05 K
4,Cc1cccc(C(=O)OCc2ccc(C(=O)Nc3ccccc3)cc2)c1,-0.03 K
5,CCC(=O)CCCN1CCC(C(C)O)CC1 (centres unmarked),-0.01 K
6,COc1cccc(C2C(C(=O)c3ccc4c(c3)OCCO4)=C(O)C(=O)N2CCCN2CCOCC2)c1 (centres unmarked),-0.03 K
7,O=C1NC(=S)NC(=O)C1=Cc1cn(-c2ccccc2)nc1-c1cc2ccccc2o1,0.56 K
8,COc1ccc(C(=O)C2=C(O)C(=O)N(CCCN3CCOCC3)C2c2cccc(OC)c2)cc1 (centres unmarked),-0.11 K
9,O=S(=O)(c1ccc(F)c(Cl)c1)N1CCNCC1,-0.12 K
10,Cc1cnc(C(=O)NC2CCCC(C)C2C)cn1 (centres unmarked),0.06 K
11,CCCC(C)(O)C(=O)O (centres unmarked),-0.11 K
12,CC1CC(C)CN(C(=O)COc2ccc3c4c(c(=O)oc3c2)CCC4)C1 (centres unmarked),-0.02 K
13,COCC(C)n1c(SCc2ccc(C(N)=O)cc2)nc2ccccc2c1=O (centres unmarked),-0.18 K
14,COc1cc(CN(C)C(=O)c2ccc(-n3cnnn3)cc2)ccc1OCc1ccccc1,-0.22 K
15,NC(=O)c1ccc(COC(=O)c2cc(C3CC3)nc3ccccc23)cc1,-0.03 K
16,CCOC(=O)C1=C(COC(=O)c2sc3nc(C)cc(C)c3c2-n2cccc2)NC(=O)NC1,-0.01 K
17,Cc1ccc(C2C(C(=O)c3cc4ccccc4o3)=C(O)C(=O)N2CCCN2CCOCC2)cc1 (centres unmarked),0.05 K
18,O=C(Cn1c(=O)cnc2ccccc21)Nc1ccc(N2CCN(Cc3ccccc3)CC2)cc1,0.01 K
19,CC1(C)CCC(NC(=O)Cn2c(=O)cnc3ccccc32)c2ccccc21 (centres unmarked),-0.16 K
20,COCCCCC(=O)O,-0.11 K
21,O=C1NC(=O)N(c2ccc3c(c2)OCO3)C1=O,-0.02 K
22,Cn1c(CCNC(=O)CCc2cccnc2)nc2cc(Cl)ccc21,-0.08 K
23,Cc1cc(C=C(C#N)C#N)c(C)n1C1CC1,-0.01 K

row,Compound,TSA(with NAD+) / Primary screening (TSA) / delta Tm (K)
1,COc1ccc(C2NC(=O)c3ccccc3N2)cc1C (centres unmarked),-0.04 K
2,O=C(/C=C/c1ccc2c(c1)OCCCO2)N1CCN(S(=O)(=O)/C=C/c2ccccc2)CC1,-0.11 K
3,O=C(Nc1cccc(S(=O)(=O)NCc2ccco2)c1)C1=NN(c2ccccc2)C(=O)CC1,0.05 K
4,CN1CCC(NC(=O)CCc2cnccn2)C1c1ccccc1 (centres unmarked),-0.02 K
5,CNC(=O)C1CCCN(c2ncnc3ccsc23)C1 (centres unmarked),-0.11 K
6,NC(=O)c1ccc(=O)n(Cc2csc(-c3ccccc3F)n2)n1,-0.05 K
7,Cc1ccc2[nH]c3c(c2c1)CC(=O)CC3,-0.12 K
8,COc1cc(C(=O)NC2CCCNC2=O)cc(OC)c1C (centres unmarked),-0.01 K
9,CN1CCN(C(=O)CCCc2ccccc2)c2nc3ccccc3nc21,-0.22 K
10,Cc1ccc(S(=O)(=O)N2CCC(C(=O)N3CCCCCCC3)CC2)cc1C,-0.01 K
11,COc1ccc(NC(=O)c2ccc(NC(=O)c3cnoc3C)cc2)cc1OCc1cccnc1,0.05 K
12,Cc1nc(-c2c[nH]c(C(=O)NCc3ccc(-n4cncn4)cc3)c2)cs1,-0.24 K
13,NC(=O)CCn1cnc2cc(F)c(F)cc21,-0.22 K
14,COc1cc(CNc2ncccc2C#N)ccn1,-0.05 K
15,CCc1ccccc1-n1c(SCCS(C)(=O)=O)nc2ccccc2c1=O,-0.09 K
16,CS(=O)(=O)CCS(N)(=O)=O,-0.12 K
17,O=C1/C(=C/c2ccccc2)Oc2cc(O)ccc21,-0.06 K
18,NC(=O)c1ccc(NC(=O)CSc2nnc(N)s2)cc1,-0.13 K
19,Cc1sc2ncnc(N3CCC(C(=O)Nc4sc5c(c4C(N)=O)CCCC5)CC3)c2c1C,0.07 K
20,CCn1nnc2cc(C(=O)N3CCN(C(c4ccc(F)cc4)c4ccc(F)cc4)CC3)ccc21,-0.22 K
21,O=C(O)CCS(=O)(=O)[O-],0.06 K
22,CN(C)c1ncnc2c1cc(C(=O)O)n2C,-0.18 K
23,O=C1NC(Cc2ccccc2)C(=O)N1CN1CCN(C/C=C/c2ccccc2)CC1 (centres unmarked),0.06 K

# Compounds listed so far with a CF3 group:
row,Compound,TSA(with NAD+) / Primary screening (TSA) / delta Tm (K)
2,CCCNC(=O)C1CCCN1c1cc(C(F)(F)F)nc2ccccc12 (centres unmarked),-0.03 K
4,CNC(=O)Cn1ccc(C(F)(F)F)n1,-0.03 K
